The values that follow come from EP1094711B1, “METHODS FOR ERADICATION OF NANOBACTERIA” (Nanobac Oy, priority 1998, dated 2000).

The assay deals with nanobacteria. Put plainly: Antibiotic sensitivity test by Minimal Inhibition Concentration (MIC), 96-well plates, absorbance at 650 nm. It counts as cell-based. Particulars: light or radiation study, 288 h, read-out: MIC 50. The protocol: Antibiotic sensitivity tests were carried out by measuring Minimal Inhibition Concentration (MIC), a common practice in clinical microbiology.
The tests were performed in 96-well plates. DMEM (commercial cell culture medium) containing 10% gamma-irradiated fetal bovine serum (FBS)(dose about 3 Mrads; this treatment inactivates nanobacteria in the serum so that the basic medium is sterile) was used as the basic culture medium. These components are commercially available, e.g., from Gibco. The antibiotic stock solutions were sterile filtered through 0.2 micrometer filters. The stock solutions were then serially diluted (into the basal culture medium) to provide a final starting concentration of 0.5 mg/ml and 1:2 dilutions therefrom, unless otherwise specified. For each antibiotic three parallel tests were performed using all the antibiotic dilutions and, additionally, positive and negative control experiments. […] 100 µl of dilutions of the nanobacteria inoculum were added to all wells except the negative controls. The plates were incubated at mammalian cell culture conditions (37° Celsius, 5% carbon dioxide, 95% humid air). The absorbance values at 650 nm were recorded by using an ELISA reader at the start, and at 4, 8, 12, 14 days. […] Calculations were based on absorbance curves where absorbance was plotted against concentration of the antibiotic.

With `CCC[C@@H]1C[C@@H](C(=O)N[C@@H]([C@H]2O[C@H](SC)[C@H](O)[C@@H](O)[C@H]2O)[C@H](C)Cl)N(C)C1` [Clindamycin], the IC50 was more than 500 µg/mL.
